Assay results reported in PubChem BioAssay AID2551 (National Center for Advancing Translational Sciences (NCATS), 2010).
Several values for one entry are separate records, joined by “and”; a condition that tells them apart may be missing. Equal entries are not always repeated. The whole screen tested about 310,000 compounds, of which about 17,000 (5.5%) were called active. This list was built around the results that the source calls inconclusive (neither active nor inactive); the mix of calls is not that of the screen. Calls follow the shape of the dose curve; as a rule, active = well fitted inhibition curve with a large enough effect; inconclusive = small, poorly fitted or top-dose-only effect, or effect the other way; inactive = no such curve, though single readings can be large or run the other way. Potencies beside an inconclusive call are fits to weak or partial responses and may not hold up. The source holds several records for some structures; these can differ, active in one and inactive in another.

By UniProt entry, the sequences of proteins in these tests, tags left out. Where a name states a change or a piece, a line headed by the entry shows the natural chain unless it says otherwise.
UniProt P51450: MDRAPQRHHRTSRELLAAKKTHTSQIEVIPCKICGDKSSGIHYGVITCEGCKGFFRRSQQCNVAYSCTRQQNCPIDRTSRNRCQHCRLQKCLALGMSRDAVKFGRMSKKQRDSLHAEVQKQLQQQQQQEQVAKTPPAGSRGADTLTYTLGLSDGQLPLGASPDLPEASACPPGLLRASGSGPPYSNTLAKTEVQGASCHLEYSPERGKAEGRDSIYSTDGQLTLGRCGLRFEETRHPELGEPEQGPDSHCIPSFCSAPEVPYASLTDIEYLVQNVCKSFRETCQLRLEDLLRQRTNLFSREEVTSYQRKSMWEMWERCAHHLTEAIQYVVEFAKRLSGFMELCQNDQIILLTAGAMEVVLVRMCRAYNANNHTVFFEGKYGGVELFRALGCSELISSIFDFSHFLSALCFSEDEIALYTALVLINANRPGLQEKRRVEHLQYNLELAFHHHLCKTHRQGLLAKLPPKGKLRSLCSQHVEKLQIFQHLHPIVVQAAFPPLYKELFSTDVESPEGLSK

Biological target: Nuclear receptor ROR-gamma (Mus musculus) (UniProt P51450)
Assay: qHTS for inhibitors of ROR gamma transcriptional activity; also: nearly all actives have a fitted effect of over 60% in size
Conditions: Drosophila S2 Gal4-RORgamma UAS-luciferase reporter, 20 h; activity change, negative = inhibition: at 53.6 µM (top of the series)
Summary of the method: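 In this cell-based reporter format, copper sulfate (700 uM final) drives Gal4–ROR gamma fusion expression from a metallothionein promoter in Drosophila Schneider cells; compounds preincubated 1 hr, reporter read after 20 hr at ambient temperature.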
% is scaled to controls: 0 for no effect and ±100 for the full control effect; potency is read from the fitted curve at half-maximal effect.

Q: `Cc1ccc(O)c([C@H](CCN(C(C)C)C(C)C)c2ccccc2)c1` was tested. Which Potency did it give?
A: The Potency was inconclusive: 5.62 µM [activator, single point].

Q: How did the Potency turn out when `CCCCCCC(C)OC(=O)COc1ccc(Cl)cc1Cl` (stereo not drawn) was run?
A: Its Potency is “inactive”.

Q: `O=C(c1cc(C(=O)NCc2ccc(Cl)cc2)c(=O)n(Cc2ccc(Cl)cc2)c1)c1cc(F)ccc1O` was tested. Which Potency did it give?
A: The Potency was inconclusive: 14.1 µM [activator, partial curve].

Q: `CC(C)c1cc2c(c(O)c1O)[C@@]1(C(=O)O)CCCC(C)(C)[C@@H]1CC2` was tested. Which Potency did it give?
A: The Potency was inconclusive: 15.8 µM [inhibitor, single point].

Q: How did the Potency turn out when `Nc1nc(N)nc(-c2ccc(Oc3ccccc3)cc2)n1` was run?
A: The Potency was inconclusive: 6.31 µM [inhibitor, single point].

Q: Which Potency does the source give for `CCOC(=O)C1CCN(C(C)C(=O)c2c(C)[nH]c3cc(C)ccc23)CC1` (stereo not drawn) here?
A: Its Potency is “inactive”.

Q: Which Potency does the source give for `Cc1nc(-c2ccc(-c3ccc(C(=O)N4CCc5cc6c(cc54)C4(CCN(C)CC4)CO6)cc3)c(C)c2)no1` here?
A: Its Potency is inconclusive: 28.2 µM [inhibitor, partial curve, poor fit].

Q: For `CC(=NCc1ccc(F)cc1)c1c(O)n(C)c(=O)n(C)c1=O`, which Potency is on record?
A: The Potency was inconclusive: 11.2 µM [activator, partial curve].

Q: `CN1CCc2nc(SCc3ccccc3Br)c(C#N)cc2C1` was tested. Which Potency did it give?
A: Its Potency is “inactive”.

Q: `COc1ccc(Cl)cc1NC1=NCC(C)S1` (stereo not drawn) was tested. Which Potency did it give?
A: Its Potency is inconclusive: 2 µM [inhibitor, partial curve, poor fit].

Q: `CCCNS(=O)(=O)c1ccc(OCC(=O)N2CCN(C)CC2)cc1` was tested. Which Potency did it give?
A: The Potency was inconclusive: 2.24 µM [inhibitor, single point].

Q: For `Cc1ccc(C(C)C)c(OCC(=O)N2CCN(Cc3nc4cc([N+](=O)[O-])ccc4n3C)CC2)c1`, which Potency is on record?
A: The Potency was “inactive”.

Q: For `Cc1csc(-c2cccnc2)n1`, which Potency is on record?
A: The Potency was inconclusive: 3.98 µM [activator, partial curve].

Q: How did the Potency turn out when `CCn1c(C)nc2cc(S(=O)(=O)Nc3ccc(C)cc3)ccc21` was run?
A: Its Potency is inconclusive: 11.2 µM [activator, partial curve].

Q: Which Potency does the source give for `COc1cc(-n2c(=S)[nH]c3ccc(C)cc3c2=O)c(Cl)cc1Cl` here?
A: The Potency was active: 2.51 µM.

Q: How did the Potency turn out when `O=C(c1ccc2c(c1)OCO2)C1CCCN(Cc2ccccn2)C1` (stereo not drawn) was run?
A: Its Potency is active: 3.16 µM.

Q: How did the activity change, negative = inhibition turn out when `Cn1c(=O)n(CC(=O)N2CCC3(CC2)OCCO3)c(=O)c2ccccc21` was run?
A: Its activity change, negative = inhibition is inactive: 8.97% [at 0.365 µM].

Q: How did the Potency turn out when `Cc1ccc2c(c1)CNc1ccccc1O2` was run?
A: Its Potency is inconclusive: 11.2 µM [activator, single point].

Q: Which Potency does the source give for `CC[C@@]1(O)CC(O)c2c(cc3c(c2O)C(=O)c2c(O)ccc(O)c2C3=O)C1C(=O)OC` (stereo partly drawn) here?
A: Its Potency is inconclusive: 3.55 µM [inhibitor, full curve, poor fit].

Q: With `Cc1ncc(CN2CCCC(C(=O)c3ccc(C(C)(C)C)cc3)C2)s1` (stereo not drawn) as the compound, how does the Potency read?
A: The Potency was inconclusive: 35.5 µM [inhibitor, single point].

Q: Which Potency does the source give for `CCCN(C/C=C\I)[C@@H]1CCc2ccc(O)cc2C1` here?
A: Its Potency is “inactive”.

Q: `CCOc1ccc(-c2nc3ccc(-c4nc5ccc(N6CCN(C)CC6)cc5[nH]4)cc3[nH]2)cc1` was tested. Which Potency did it give?
A: Its Potency is active: 2.24 µM.

Q: How did the Potency turn out when `CC(=O)Nc1ccccc1C(=O)OCc1ccc(F)cc1` was run?
A: Its Potency is inconclusive: 11.2 µM [activator, single point].

Q: `CN(Cc1ccccc1)C(=O)Cn1c(=O)oc2cc(S(=O)(=O)NCc3ccccc3)ccc21` was tested. Which Potency did it give?
A: Its Potency is inconclusive: 35.5 µM [activator, single point].

Q: How did the Potency turn out when `Cc1ccc2c(c1)Cc1c(C(=O)NN3CCCCC3)nn(-c3ccc(Cl)cc3Cl)c1-2` was run?
A: Its Potency is inconclusive: 35.5 µM [activator, single point].

Q: Which Potency does the source give for `Cc1ccc2c(c1N)C(=O)c1ccccc1C2=O` here?
A: The Potency was “inactive”.

Q: With `CN1CCC(N(C)c2ncnc3ccc(Br)cc23)CC1` as the compound, how does the activity change, negative = inhibition read?
A: Its activity change, negative = inhibition is inactive: 7.75% [at 0.365 µM].

Q: For `Cc1ccc(C(O)P(=O)(OC2CCCCC2)OC2CCCCC2)cc1` (stereo not drawn), which Potency is on record?
A: The Potency was inconclusive: 0.447 µM [activator, full curve].

Q: For `Cc1ccc2[nH]c(=S)n(-c3cccnc3)c(=O)c2c1`, which Potency is on record?
A: Its Potency is inconclusive: 8.91 µM [inhibitor, partial curve].

Q: `Cc1c(C=O)c2ccccc2n1Cc1ccccc1` was tested. Which Potency did it give?
A: Its Potency is “inactive”.

Q: Which Potency does the source give for `CNC(C(=O)c1ccccc1)C(OC)c1cccc([N+](=O)[O-])c1` (stereo not drawn) here?
A: Its Potency is “inactive”.

Q: For `Cc1ccc2cc(C=C(C#N)C#N)c(Cl)nc2c1`, which Potency is on record?
A: Its Potency is inconclusive: 28.2 µM [inhibitor, single point].

Q: How did the Potency turn out when `CCN(CC)C(=O)c1ccc(NC(=S)NC(=O)CCc2ccccc2)cc1` was run?
A: The Potency was inconclusive: 25.1 µM [inhibitor, single point].

Q: Which Potency does the source give for `CCCCc1ncc(CN2CCCC(C(=O)c3ccc(SC)cc3)C2)[nH]1` (stereo not drawn) here?
A: Its Potency is active: 11.2 µM.

Q: For `N#CC(C#N)=Cc1cc(O)c(O)c(O)c1`, which Potency is on record?
A: Its Potency is inconclusive: 22.4 µM [inhibitor, single point].

Q: How did the Potency turn out when `CC(C)Oc1cccc(C(=O)C2CCCN(Cc3ccon3)C2)c1` (stereo not drawn) was run?
A: The Potency was “inactive”.

Q: For `CCCCCCCCCCCCCCCC[N+](C)(C)C`, which Potency is on record?
A: Its Potency is inconclusive: 3.16 µM [activator, single point].

Q: What about the activity change, negative = inhibition of the same compound?
A: The activity change, negative = inhibition was inactive: 40.2% [at 10 µM].

Q: `C=CC(=O)OCC(CO)(COC(=O)C=C)COC(=O)C=C` was tested. Which Potency did it give?
A: Its Potency is active: 4.47 µM.

Q: `CN1C[C@H](CNC(=O)OCc2ccccc2)C[C@@H]2c3cccc4c3c(cn4C)C[C@H]21` was tested. Which Potency did it give?
A: The Potency was active: 11.2 µM and active: 22.4 µM.

Q: `O=C(CCl)c1ccccc1` was tested. Which Potency did it give?
A: Its Potency is inconclusive: 8.91 µM [inhibitor, partial curve, poor fit].

Q: Which Potency does the source give for `Cn1c(O)c(C(=Nc2ccccc2)SCc2ccc(Cl)cc2)c(=O)n(C)c1=O` here?
A: The Potency was inconclusive: 28.2 µM [activator, single point].

Q: How did the Potency turn out when `CCc1nc2ccccc2c(=O)n1-c1ccc2ccccc2c1` was run?
A: Its Potency is “inactive”.

Q: With `N#Cc1ccc(NC(=O)CN2C(=O)NC3(CCCC3)C2=O)cc1Cl` as the compound, how does the Potency read?
A: Its Potency is “inactive”.

Q: How did the Potency turn out when `C=C(C)CN1CC[C@]23c4c5ccc(O)c4O[C@H]2c2[nH]c4ccccc4c2C[C@@]3(O)C1C5` was run?
A: Its Potency is “inactive”.

Q: Which Potency does the source give for `Cc1ccc(Cn2cc(C=O)c3ccccc32)cc1` here?
A: Its Potency is inconclusive: 35.5 µM [activator, single point].

Q: How did the Potency turn out when `COc1ccccc1/C=C1\C(=O)NC(=S)N(c2ccccc2)C1=O` was run?
A: Its Potency is “inactive”.

Q: For `O=C(CNC(=O)c1ccc(Cl)cc1)OCC(=O)c1ccc2c(c1)OCCO2`, which Potency is on record?
A: Its Potency is inconclusive: 31.6 µM [activator, single point].

Q: For `CC1CCC(C(C)C)C(OP(=O)(c2ccc(N(C)C)cc2)C(O)c2cccnc2)C1` (stereo not drawn), which Potency is on record?
A: Its Potency is inconclusive: 35.5 µM [activator, single point].

Q: `Cc1ccc(-n2c(O)c(C=NCCN3CCOCC3)c(=O)[nH]c2=O)cc1` was tested. Which Potency did it give?
A: The Potency was inconclusive: 35.5 µM [inhibitor, single point].

Q: `O=C(COc1ccc(S(=O)(=O)N2CCCCC2)cc1)N1CCN(Cc2ccccc2)CC1` was tested. Which Potency did it give?
A: The Potency was inconclusive: 15.8 µM [activator, single point].

Q: How did the Potency turn out when `Nc1ncc(S(=O)(=O)c2ccc(Cl)cc2)c(N)n1` was run?
A: Its Potency is inconclusive: 15.8 µM [activator, single point].

Q: With `O=[N+]([O-])c1cccc(CN2CC=C(c3ccc(F)cc3)CC2)c1` as the compound, how does the Potency read?
A: Its Potency is “inactive”.

Q: `COC[C@H]1OC(=O)c2coc3c2[C@@]1(C)C1=C(C3=O)C2CCC(=O)[C@@]2(C)C[C@H]1OC(C)=O` (stereo partly drawn) was tested. Which Potency did it give?
A: Its Potency is inconclusive: 35.5 µM [inhibitor, single point].

Q: With `CN(C(=O)Cc1ccc(Cl)c(Cl)c1)[C@H](CN1CCCC1)c1cccc(N=C=S)c1` as the compound, how does the Potency read?
A: Its Potency is active: 31.6 µM.

Q: For `CN(C)CCNC(=O)c1cccn(Cc2cc(C(F)(F)F)cc(C(F)(F)F)c2)c1=O`, which Potency is on record?
A: Its Potency is “inactive”.

Q: `N#CSCSC#N` was tested. Which Potency did it give?
A: Its Potency is active: 1.12 µM.

Q: Which Potency does the source give for `NC[C@H](O)c1ccc(O)cc1` here?
A: Its Potency is “inactive”.

Q: With `O=C(CCCN1CCC2(CC1)C(=O)NCN2c1ccccc1)c1ccc(F)cc1` as the compound, how does the Potency read?
A: The Potency was “inactive”.

Q: How did the Potency turn out when `CC(=NCCC(c1ccccc1)c1ccccc1)c1c(O)n(C)c(=O)n(C)c1=O` was run?
A: The Potency was “inactive”.

Q: Which Potency does the source give for `CC(=O)c1ccc2c(c1)C1C(Cl)C(Sc3ccccc3[N+](=O)[O-])CC1C(c1ccccc1)N2` (stereo not drawn) here?
A: The Potency was “inactive”.

Q: How did the Potency turn out when `Nc1nonc1C(=O)N/N=C/c1ccc([N+](=O)[O-])o1` was run?
A: Its Potency is inconclusive: 35.5 µM [inhibitor, single point].

Q: For `O=C(CNC(=O)c1ccccc1Cl)Nc1ccc(Br)cc1C(=O)c1ccccc1`, which Potency is on record?
A: Its Potency is inconclusive: 17.8 µM [activator, single point].

Q: For `CC(=O)O[C@@]12CO[C@@H]1C[C@@H](O)[C@@]1(C)C(=O)[C@H](O)C3=C(C)[C@@H](OC(=O)[C@H](O)[C@@H](NC(=O)c4ccccc4)c4ccccc4)C[C@@](O)([C@@H](OC(=O)c4ccccc4)C12)C3(C)C` (stereo partly drawn), which Potency is on record?
A: The Potency was inconclusive: 10 µM [activator, partial curve].

Q: With `CC1=CC2/C=C(\C)CCC(O)C(O)/C=C/C(=O)C23C(=O)NC(CC(C)C)C3C1C` (stereo not drawn) as the compound, how does the Potency read?
A: Its Potency is active: 5.01 µM.

Q: How did the Potency turn out when `O=c1c2ccccc2cnn1Cc1n[nH]c(=S)n1C1CC2CCC1C2` (stereo not drawn) was run?
A: The Potency was inconclusive: 15.8 µM [inhibitor, partial curve].

Q: How did the Potency turn out when `Oc1ccc(Cl)c(Cl)c1Cl` was run?
A: Its Potency is inconclusive: 12.6 µM [activator, partial curve].

Q: `O=P1(NC2CCCC2)COc2ccccc2OC1` was tested. Which Potency did it give?
A: Its Potency is inconclusive: 0.1 µM [inhibitor, full curve, poor fit].

Q: `C[C@H](N)[C@@H](O)c1ccccc1` was tested. Which activity change, negative = inhibition did it give?
A: The activity change, negative = inhibition was inactive: 0.116% [at 2.98 µM].

Q: For `COC(=O)C(C)Oc1cc(C)cc2oc(=O)c3c(c12)CCC3` (stereo not drawn), which Potency is on record?
A: The Potency was “inactive”.

Q: With `O=C1Nc2ccccc2/C1=C/c1cnc[nH]1` as the compound, how does the Potency read?
A: The Potency was inconclusive: 17.8 µM [activator, partial curve].

Q: With `Cc1nc2ccccn2c1P(=S)(N1CCCCC1)N1CCCCC1` as the compound, how does the Potency read?
A: Its Potency is active: 7.08 µM.

Q: Which Potency does the source give for `CC(O)(CS(=O)(=O)c1ccc(F)cc1)C(=O)Nc1ccc(C#N)c(C(F)(F)F)c1` (stereo not drawn) here?
A: Its Potency is inconclusive: 31.6 µM [activator, single point].
